No constants are given. Whether binding was seen depends on the method and setting. Some binding calls cover weakened binding; strength is not graded here.
Key:
[1] = biological target: T1, CD33 expressed on MV4-11 human AML cells (human, UniProt P20138 18-364); experiment: flow cytometry on MV4-11 cells at 20 ug/mL, fold over background
T1 construct: whole, on cells; also called cell-expressed CD33

Sequences of proteins named here, by UniProt entry; tags and fusion partners are left off. Residues count along the entry.
UniProt P20138, residues 18-364: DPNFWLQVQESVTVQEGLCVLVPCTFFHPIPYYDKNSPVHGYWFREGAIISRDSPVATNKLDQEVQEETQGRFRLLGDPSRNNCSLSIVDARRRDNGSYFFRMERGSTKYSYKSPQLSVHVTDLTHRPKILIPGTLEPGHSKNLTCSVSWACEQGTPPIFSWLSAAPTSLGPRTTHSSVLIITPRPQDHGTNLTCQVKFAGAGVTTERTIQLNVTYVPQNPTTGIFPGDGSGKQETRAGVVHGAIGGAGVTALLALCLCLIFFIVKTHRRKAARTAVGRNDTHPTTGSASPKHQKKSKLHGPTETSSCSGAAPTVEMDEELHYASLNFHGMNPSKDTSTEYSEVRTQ

[2] = biological target: T1, CD33 expressed on MV4-11 human AML cells; experiment: flow cytometry on MV4-11 cells, FOB of MFI
Protocol: Human AML cell line MV4-11 expressing CD33 was used to assay the binding of TriNKETs to the tumor associated antigen. TriNKETs and the parental anti-CD33 monoclonal antibody were incubated with the cells, and the binding was detected using fluorophore-conjugated anti-human IgG secondary antibodies. Cells were analyzed by flow cytometry, and fold-over-background (FOB) was calculated using the mean fluorescence intensity (MFI) from TriNKETs and the parental monoclonal anti-CD33 antibody normalized to secondary antibody controls.

B1: CD33-TriNKET-F04 (ADI-29404 and a CD33-binding domain) (bispecific antibody, V domains shown)
VH 1: QVQLQQWGAGLLKPSETLSLTCAVYGGSFSGYYWSWIRQPPGKGLEWIGEIDHSGSTNYNPSLKSRVTISVDTSKNQFSLKLSSVTAADTAVYYCARARGPWSFDPWGQGTLVTVSS
VL 1: DIQMTQSPSTLSASVGDRVTITCRASQSISSWLAWYQQKPGKAPKLLIYKASSLESGVPSRFSGSGSGTEFTLTISSLQPDDFATYYCEQYDSYPTFGGGTKVEIK
VH 2: QVQLVQSGAEVKKPGASVKVSCKASGYTFTDYVVHWVRQAPGQGLEWMGYINPYNDGTKYNEKFKGRVTMTRDTSISTAYMELSRLRSDDTAVYYCARDYRYEVYGMDYWGQGTLVTVSS
VL 2: DIVLTQSPASLAVSPGQRATITCTASSSVNYIHWYQQKPGQPPKLLIYDTSKVASGVPARFSGSGSGTDFTLTINPVEANDTANYYCQQWRSYPLTFGQGTKLEIK
binding [1]: binds | binding [2]: binds

Reference: patent US20210079102A1 (DRAGONFLY THERAPEUTICS, published 2021)
